# Assay results: PubChem BioAssay AID588727 (Southern Research Specialized Biocontainment Screening …, 2011)
# The whole screen tested about 350,000 compounds, of which about 450 (0.13%) were called active. Only results without a clear call are listed here; the source files them as inconclusive. The rule behind the calls is not given here.
# Experiment: inhibitors of VEEV TC-83 cytopathic effect, confirmation, Vero cells (AID 588727)
# Settings: VEEV TC-83 cytopathic effect inhibition, at 20 µM, active compounds read high
row,SMILES,inhibition
1,O=[N+]([O-])c1cc([N+](=O)[O-])c(NCC2CCS(=O)(=O)C2)c([N+](=O)[O-])c1 (stereo unspecified),inconclusive: 20.1%
